In patent US20260048067A1, “N-(1-((R)-1-Acryloylazepan-3-YL)-7-Chloro-6-(((R)-Tetrahydrofuran-3-YL)OXY)-1H-BENZO[D]Imidazol-2-YL)-2-Methylisonicotinamide (NX-019) for Use in the Treatment of EGFR Mutant Cancer” (Nalo Therapeutics, Inc., priority 2022, published 2026):
For some of these results: The name of at least one read-out is uncertain. For some of these results: For at least one compound, name, drawing or mass did not settle the structure.

How the values were obtained:
[1] = system: cell lines with classic, exon20 insertion, and other rare mutations vs cells expressing wild type EGFR; assay: Potency in mutant EGFR cell lines compared to wild type EGFR cells; format: cell-based
[2] = system: PDX model Exon 20 ins (LU0387-H773_V774insNPH); assay: PDX model Exon 20 ins subcutaneous xenograft; format: in vivo, BALB/c nude mice; conditions: 75 and 125 mg/kg PO BID
Protocol: In all the xenograft models, NX-019 was well tolerated with no to minimal body weight loss during treatment (FIG. 5, panel B). […] Referring to FIG. 5, PDX model Exon 20 ins (LU0387-H773_V774insNPH) cells were implanted subcutaneously in BALB/c nude mice. When tumors reached an average of 160mm^3, NX-019 was dosed at 75 and 125 mg/kg in mice orally twice per day (PO BID). Tumor volume and body weight of the mice were measured and graphed (FIG. 5).

[3] = target: T1, phosphorylated EGFR, Ba/F3 EGFR Exon 20 ins (D770_N771insSVD) tumors and skin (Homo sapiens, UniProt P00533, INS770SVD); assay: Phosphorylated EGFR in tumor and skin by western blot, Ba/F3 Exon 20 ins xenograft; format: in vivo, BALB/c nude mice; conditions: 2 hours post dosing
T1 construct: expressed in transfected cells; host or cells: Ba/F3 cells expressing EGFR D770_N771insSVD, subcutaneous tumours in BALB/c nude mice

[4] = system: cell lines expressing wildtype EGFR or specific EGFR exon 20 insertion mutants; assay: Cell viability, wildtype EGFR vs EGFR exon 20 insertion mutants, compared with other EGFR inhibitors; format: cell-based; conditions: in comparison to other EGFR inhibitors tested
[5] = Pharmacokinetic distribution into the CNS compartment, mice; format: in vivo; conditions: 100 mg/kg oral dose
[6] = target: T2, phospho-EGFR, intracranial PC9 (exon 19del) tumors (Homo sapiens, UniProt P00533, DEL746-750); assay: Phospho-EGFR in intracranial PC9 (exon 19del) model, western blot; format: in vivo, mice; conditions: 175 mg/kg; time points post dose; western blot of tumor lysates
T2 construct: phospho-EGFR in an intracranial PC9 (exon 19del) model; endogenous in cells; host or cells: PC9 (PC9-GFP) NSCLC cells, intracranial tumours in mice

[7] = system: PC9-GFP brain tumors, EGFR DelE746-A750; assay: Mouse model of brain cancer (PC9-GFP); format: in vivo, NCr nu/nu mice; conditions: 75 and 125 or 150 mg/kg PO BID; PC9-GFP in brain
Protocol: NX-019 was orally dosed at 75 and 125 or 150 mg/kg PO BID. Tumor volume was measured over time and graphed. The body weight of the mice was measured over time and graphed.
NX-019 was well tolerated with no to minimal body weight loss during treatment (FIG. 2, panel B). A companion study was completed looking at the PD effects of NX-019 in PC-9 CNS. […] Tumor lysates were analyzed by western blot using EGFR, phospho-EGFR and tubulin antibodies.

**Q.** Which results are given for `C=CC(=O)N1CCCC[C@@H](n2c(NC(=O)c3ccnc(C)c3)nc3ccc(O[C@H]4CCOC4)c(Cl)c32)C1` [NX-019, N-(1-((R)-1-Acryloylazepan-3-yl)-7-chloro-6-(((S)-tetrahydrofuran-3-yl)oxy)-1H-benzo[d]imidazol-2-yl)-2-methylisonicotinamide]?
**A.** greater potency in mutant EGFR cell lines compared to cells expressing wild type EGFR [1]: 7.3-200+; Tumor volume [2]: tumor regressions and cures at both tested doses; Tumor EGFR level, quantitated and normalized to total EGFR and β-actin ([3]; 25 mg/kg): significantly reduces tumor EGFR level; Tumor and skin phosphorylated EGFR expression ([3]; 25, 50, 75, 125 mg/kg PO BID x1, western blot): reduces tumor and skin phosphorylated EGFR expression at all tested dosages; Selectivity for mutant EGFR in tumors compared to wildtype EGFR in skin ([3]; 25-125 mg/kg PO BID x1): enhanced inhibitor of, and selectivity for, mutant EGFR in tumors compared to wildtype EGFR in skin samples; EGFR exon 20 insertion mutation selectivity [4]: improved EGFR exon 20 insertion mutation selectivity in comparison to other compounds tested; Time calculated free fraction level in brain cortex remained above 100 nm [5]: approximately 4 hours; Calculated free fraction level within the brain cortex ([5]; within 15 minutes): exceeded 1 μm; Inhibition of EGFR phosphorylation in tumors [6]: sustained inhibition of EGFR phosphorylation; Tumor volume [7]: complete regression of tumors
